Results deposited as PubChem BioAssay AID1259424 (University of Nebraska Medical Center, 2018).

- Screen: 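Seek colon cancer survival genes behaving like KSR1, using a six-gene signature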 (primary screen)
- System: human HCT116 colon cancer cells
- Knock-down reagent: siRNA pool against human genes, 50 nM
- Measured: 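Log2 levels of six mRNAs (branched-DNA multiplex), adjusted by two reference genes and the non-targeting median, then scored against the average KSR1 knockdown pattern as Pearson r and euclidean distance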
- Scale: mean correlation with KSR1 profile: higher = expression change more like KSR1 knockdown
The whole screen tested about 14,000 reagents; below is a random part of them. 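Higher correlation or smaller distance means closer resemblance to KSR1 loss; control wells, including KSR1 knockdowns, recur on many plates.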 The numbers tell different reagents against one gene apart. Not all columns of the deposit are shown. Not given: the time to read-out.

With knock-down of SANBR (GeneID 84542), the screen gave mean correlation with KSR1 profile -0.168.
Depletion of CPB2 (GeneID 1361) resulted in: mean correlation with KSR1 profile 0.919.
After knock-down of SLC5A7 (GeneID 60482), the record shows mean correlation with KSR1 profile 0.497.
For STBD1 (GeneID 8987), the entry reads mean correlation with KSR1 profile -0.126.
After knock-down of CNPY2 (GeneID 10330) the results were mean correlation with KSR1 profile -0.62.
RASSF2 (GeneID 9770) showed mean correlation with KSR1 profile -0.182.
Knock-down of TRMU (GeneID 55687) resulted in: mean correlation with KSR1 profile -0.221.
For LEP (GeneID 3952), the entry reads mean correlation with KSR1 profile 0.0799.
CLPP (GeneID 8192) scored mean correlation with KSR1 profile -0.0443.
EFHD2 (GeneID 79180) gave mean correlation with KSR1 profile 0.266.
With knock-down of BTF3P11 (GeneID 690), the record shows mean correlation with KSR1 profile -0.0779.
After knock-down of ARHGEF4 (GeneID 50649), the record shows mean correlation with KSR1 profile -0.132.
After knock-down of ZNF41 (GeneID 7592), the record shows mean correlation with KSR1 profile 0.036.
After knock-down of VPS36 (GeneID 51028) the results were mean correlation with KSR1 profile -0.773.
With knock-down of MASTL (GeneID 84930), the record shows mean correlation with KSR1 profile -0.0212.
PLSCR4 (GeneID 57088) showed mean correlation with KSR1 profile 0.31.
HIPK3 (GeneID 10114) showed mean correlation with KSR1 profile 0.149.

5 neighbouring records already listed:
ZNF41 (GeneID 7592) | mean correlation with KSR1 profile: 0.036
VPS36 (GeneID 51028) | mean correlation with KSR1 profile: -0.773
MASTL (GeneID 84930) | mean correlation with KSR1 profile: -0.0212
PLSCR4 (GeneID 57088) | mean correlation with KSR1 profile: 0.31
HIPK3 (GeneID 10114) | mean correlation with KSR1 profile: 0.149

More entries follow.
Against PLP1 (GeneID 5354) the deposit lists mean correlation with KSR1 profile -0.253.
With knock-down of SNX13 (GeneID 23161), the record shows mean correlation with KSR1 profile -0.451.
CLDND1 (GeneID 56650) gave mean correlation with KSR1 profile -0.42.
Depletion of COL4A3 (GeneID 1285) resulted in: mean correlation with KSR1 profile 0.0332.
Knock-down of TRMT2B (GeneID 79979) came out at: mean correlation with KSR1 profile 0.506.
For POLM (GeneID 27434), the values are mean correlation with KSR1 profile -0.282.
MED23 (GeneID 9439) showed mean correlation with KSR1 profile 0.615.
Against DLGAP2 (GeneID 9228), the values are mean correlation with KSR1 profile -0.31.
With knock-down of HPS6 (GeneID 79803), the record shows mean correlation with KSR1 profile -0.504.
Depletion of RIGI (GeneID 23586) gave: mean correlation with KSR1 profile -0.341.
After knock-down of PAICS (GeneID 10606), the screen gave mean correlation with KSR1 profile -0.3.
After knock-down of CEP164 (GeneID 22897), the screen gave mean correlation with KSR1 profile -0.309.
After knock-down of MAFG (GeneID 4097) #1 the results were mean correlation with KSR1 profile 0.517.
MAFG (GeneID 4097) #2 scored mean correlation with KSR1 profile 0.118.
Depletion of FOXM1 (GeneID 2305) came out at: mean correlation with KSR1 profile 0.364.
For LAMA3 (GeneID 3909), the values are mean correlation with KSR1 profile -0.604.
Silencing of ANXA9 (GeneID 8416) resulted in: mean correlation with KSR1 profile 0.316.
After knock-down of HLA-E (GeneID 3133) the results were mean correlation with KSR1 profile -0.58.
Depletion of LIMK2 (GeneID 3985) resulted in: mean correlation with KSR1 profile -0.368.
